Data on two molecules can be found in publication PMC8211912.

No constants are given. Whether binding was seen depends on the method and setting. Binding seen in cells or lysates may run through a third protein. A yes stands for co-enrichment or nearness to the bait. Other partners may have been found. Tags and fused reporters may be left off the sequences shown.

For assay [1], the target named is T1, myc-tagged AtSYP32 (Arabidopsis thaliana) (UniProt Q9LK09).
T1 sequence: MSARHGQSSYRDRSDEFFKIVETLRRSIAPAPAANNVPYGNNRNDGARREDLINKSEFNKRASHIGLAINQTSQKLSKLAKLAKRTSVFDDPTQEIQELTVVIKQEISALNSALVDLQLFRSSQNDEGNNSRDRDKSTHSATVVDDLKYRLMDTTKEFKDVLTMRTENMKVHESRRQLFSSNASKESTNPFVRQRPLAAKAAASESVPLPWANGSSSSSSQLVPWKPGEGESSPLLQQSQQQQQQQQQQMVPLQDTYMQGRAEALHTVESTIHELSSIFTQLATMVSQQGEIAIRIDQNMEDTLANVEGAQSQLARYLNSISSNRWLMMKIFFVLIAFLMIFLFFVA
The assay is described as follows: affinity purification with mass spectrometry; Pull-down with an anti-c-myc epitope tag protein isolation kit (Miltenyi Biotec) from 2 g of two-week-old seedlings overexpressing the myc-tagged bait; beads analysed by shotgun LC-MS/MS.

Assay [2] addresses T2, TAP (myc)-tagged AtSEC22 (Arabidopsis thaliana) (UniProt Q94AU2).
T2 sequence: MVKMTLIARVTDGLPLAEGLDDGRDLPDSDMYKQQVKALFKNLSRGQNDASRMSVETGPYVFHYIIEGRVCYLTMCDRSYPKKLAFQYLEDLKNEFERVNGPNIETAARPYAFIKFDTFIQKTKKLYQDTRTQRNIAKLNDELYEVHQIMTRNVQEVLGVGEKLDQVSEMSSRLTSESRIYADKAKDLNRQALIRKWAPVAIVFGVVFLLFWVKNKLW
The assay is described as above.

B1: AtSEC22 (endogenous) (protein, UniProt Q94AU2 1-218)
chain: T2 sequence
As for B1, the binding entry in assay [1] is “binds”.

B2: AtSYP32 (endogenous) (protein, UniProt Q9LK09 1-347)
chain: T1 sequence
As for B2, the binding entry in assay [2] is recorded as “binds”.
